The record followed here is article PMC12040169 (PLOS Biology, 2025).

This is one part of the list.

The assay has as its system T1, CTL2-GFP (C. trachomatis L2/434/Bu, GFP-expressing).
T1 construct: L2/434/Bu, GFP-expressing
Further details: species or system HeLa; Intracellular C. trachomatis growth in HeLa cells, bulk GFP fluorescence relative to DMSO. The note with it: bulk GFP, single well; 28.5 h, 10 µM; inhibitor.
Turning to `O=C(Cn1ccc2ccnc(-c3cccs3)c21)N1CCC(O)CC1` [CBK284736], the “% of control remaining” value turned out to be 129.04%.

Consider `Cc1cc(C)cc(NC(=O)Cn2cnc3c(sc4ccccc43)c2=O)c1` [CBK287807], for which the “% of control remaining” value is reported as 122.392%.

As to `COC(=O)c1cn(-c2ccc(Cl)cc2)c(=O)c2ccccc12` [CBK116489], the “% of control remaining” value came to 90.6204%.

As for `O=C(CNCc1ccc2c(c1)OCO2)NCc1ccc2c(c1)OCO2` [CBK074763], the “% of control remaining” value was 145.674%.

As for `COc1ccc(-c2cc(C(=O)Nc3cccc(C(=O)O)c3)cnc2-c2ccc(F)cc2)cn1` [CBK038064], the “% of control remaining” value is listed as 114.085%.

In the case of `O=S(=O)(NCC1CCCO1)c1ccc2oc3ccc(S(=O)(=O)NCC4CCCO4)cc3c2c1` (centres unmarked) [CBK265914], the “% of control remaining” value is 102.311%.

For the compound `c1cncc(CNc2cccc(OCCOc3nccnc3N3CCNCC3)c2)c1` [CBK200008], the “% of control remaining” value stood at 106.843%.

As for `N#Cc1c(NC(=O)CSc2ncnc3c2cnn3-c2ccccc2)sc2c1CCCC2` [CBK269478], the “% of control remaining” value is 133.234%.

For `O=C(Cn1c(C2CCOCC2)cc2cccnc21)N1CCCCCC1` [CBK284674], the “% of control remaining” value worked out at 54.5925%.

Turning to `Cc1cccc(C(=O)N2CCCCC2CN(C)C)c1` (centres unmarked) [CBK074171], the “% of control remaining” value amounted to 138.184%.

For the compound `CCc1cc(CNC(=O)C(c2ccccc2)N2CCC(C)CC2)on1` (centres unmarked) [CBK281592], the “% of control remaining” value worked out at 130.415%.

Consider `Cn1c(-c2ccccc2)c(C(=O)C(N)=O)c2ccccc21` [CBK288465], for which the “% of control remaining” value came to 110.42%.

In the case of `Cc1cc(CNS(=O)(=O)c2ccc(-c3ccon3)s2)no1` [CBK062276], the “% of control remaining” value is 90.1748%.

For `Nc1cc2cccnc2nc1-c1cccnc1` [CBK067602], the “% of control remaining” value stood at 162.351%.

For the compound `CN1CCN(C(=O)c2cccc(NS(=O)(=O)c3cc(Cl)sc3Cl)c2)CC1` [CBK038966], the “% of control remaining” value was determined as 140.013%.

On to `O=S(=O)(Nc1nnn[nH]1)c1ccc(Cl)c(Cl)c1` [CBK062387], for which the “% of control remaining” value is 104.974%.

As for `Cn1c(C(=O)N2CCc3ccccc32)cc2ccccc21` [CBK200406], the “% of control remaining” value is 115.29%.

For `Nc1ncc(-c2cccs2)nc1-c1ccc(F)c(Cl)c1` [CBK063990], the “% of control remaining” value was 78.2464%.

Turning to `COc1cccc(CN2CCC3(C2)c2[nH]c4c(C)cccc4c2CCN3C(C)=O)c1` (centres unmarked) [CBK039662], the “% of control remaining” value was 91.2422%.

On to `NC(=O)c1ccccc1NC(=O)C1CCC(C(=O)Nc2ccccc2C(N)=O)CC1` (centres unmarked) [CBK268716], for which the “% of control remaining” value is 117.004%.

For `N=c1n(CC(=O)c2ccc(Br)s2)c2ccccc2n1Cc1ccccc1` [CBK262482B], the “% of control remaining” value is recorded as 96.8738%.

With `COc1ccc(NS(=O)(=O)c2cc(C(=O)O)sc2Br)cn1` [CBK297943], the “% of control remaining” value was 116.135%.

`O=C(O)CNC(=O)CNC(=O)Cn1c(-c2ccccc2)cc2ccccc21` [CBK286550]: the “% of control remaining” value is reported as 121.663%.

On to `COc1ccc2cc(C)c3n[nH]c(=O)n3c2c1` [CBK283765], for which the “% of control remaining” value is recorded as 130.896%.

As for `Nc1nc(OCCOc2ccccc2)cnc1-c1ccc2c(c1)OCO2` [CBK145097], the “% of control remaining” value is on record as 100%.

For `CC(=O)N(C)Cc1cccc(Nc2ncnc3c2cnn3CCO)c1` [CBK305979], the “% of control remaining” value is 107.306%.

On to `CCc1nc2ccc(C(=O)NCCCN3CCCC3=O)cn2c1N(C)C(=O)COc1ccccc1` [CBK145855], for which the “% of control remaining” value came out at 181.817%.

As for `O=C(NCCN1CCCC1)c1ccc2nc[nH]c2c1` [CBK153311], the “% of control remaining” value was 133.838%.

Consider `COc1ccc(C(=O)Nc2ccccc2)cc1NC(=O)c1cc(C(F)(F)F)cc(C(F)(F)F)c1` [CBK263465], for which the “% of control remaining” value is 131.689%.

Turning to `CCc1nnc(NC(=O)c2cc(OC)c(OC)c(OC)c2)s1` [CBK058342], the “% of control remaining” value was 121.414%.

Turning to `COc1cccc(-c2ccc(C(=O)NCCNC(C)=O)c(N3CCOCC3)n2)c1` [CBK076465], the “% of control remaining” value was determined as 114.813%.

Turning to `Cc1ncsc1CCOc1nccnc1N1CCCC1` [CBK115752], the “% of control remaining” value was determined as 93.7467%.

`CC(NC(=O)/C(=C\c1ccc(Cl)cc1)NC(=O)c1ccco1)C(=O)O` (centres unmarked) [CBK263617]: the “% of control remaining” value amounted to 116.949%.

As to `O=C(CSc1ncccn1)Nc1sc2c(c1C(=O)Nc1ccccc1)CCCC2` [CBK265939], the “% of control remaining” value was 100%.

As for `O=C1CC(C(=O)N2CCN(C(=O)c3ccco3)CC2)c2ccccc21` (centres unmarked) [CBK144464], the “% of control remaining” value is listed as 103.459%.

Regarding `Nc1nnc(CSCc2ccc(Cl)cc2Cl)s1` [CBK263471], the “% of control remaining” value stood at 103.776%.

`Cc1ccn2c(C(=O)N(C)CCc3noc(C(C)C)n3)nnc2n1` [CBK306670]: the “% of control remaining” value is recorded as 139.564%.

As for `Cn1c(=O)n(CC(=O)NC23CC4CC(CC(C4)C2)C3)c2cccnc21` [CBK283795], the “% of control remaining” value came out at 123.356%.

As for `Cc1cc(C)c(NC(=O)CSCC(=O)Nc2ccc3ccccc3c2)c(C)c1` [CBK264856], the “% of control remaining” value is listed as 119.927%.

As for `CC(=O)Nc1ccc(S(=O)(=O)NC2(C(F)(F)F)NC(=O)N(C3CCCC3)C2=O)cc1` (centres unmarked) [CBK268100], the “% of control remaining” value was 79.1297%.

Take `CCOC(=O)c1cc(C(N)=S)c(C)nc1C(F)(F)F` [CBK028734]: the “% of control remaining” value worked out at 142.817%.

Take `Cc1nc(NCCCn2ccnc2)c2ccccc2n1` [CBK051987]: the “% of control remaining” value is reported as 100%.

For the compound `CCC(=O)c1cc(F)c(N2CCN(C(=O)c3cccs3)CC2)cc1C` [CBK033892], the “% of control remaining” value turned out to be 125.618%.

In the case of `CCN(CC)C(=O)C1CCCN(C(=O)NCCc2c[nH]cn2)C1` (centres unmarked) [CBK156124], the “% of control remaining” value came to 106.941%.

For `O=C(NCc1ccc2c(c1)OCO2)c1cnc(-c2ccc(Cl)cc2)c(-c2ccco2)c1` [CBK037547], the “% of control remaining” value worked out at 145.608%.

As to `O=S(=O)(CCOc1ccccc1)N(CCOc1ccccc1)C1CCCCC1` [CBK022003], the “% of control remaining” value is listed as 113.383%.

Consider `COc1ccc(-c2c(-c3ccc(F)cc3)[nH]c3[nH]c(=O)[nH]c(=O)c23)cc1` [CBK288232], for which the “% of control remaining” value stood at 97.6758%.

In the case of `Cc1ccc(-c2nc3ncccc3o2)cc1NC(=S)NC(=O)c1ccc(-c2cccc([N+](=O)[O-])c2)o1` [CBK268294], the “% of control remaining” value was found to be 103.033%.

With `COc1ccc(Oc2cncc(OC3CCN(CCCn4c(=O)[nH]c5ccccc54)C3)n2)cc1OC` (centres unmarked) [CBK084406], the “% of control remaining” value is recorded as 121.73%.

On to `COc1ccc(COC(=O)C2CC(=O)N(Cc3ccc(C)cc3)C2)cc1` (centres unmarked) [CBK296624], for which the “% of control remaining” value is listed as 163.805%.
